Laboratory results as given in PubChem BioAssay AID2685 (National Center for Advancing Translational Sciences (NCATS), 2010).
The list shows a part of the results. Further columns of the screen follow, without active or inactive calls. Compounds called inactive in the main read-out are mostly missing here. Potencies come from curve fits of mixed quality, noted in brackets.

Experiment: qHTS Assay for Lipid Storage Modulators in Drosophila S3 Cells;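 for cell number change: cells counted by Cell Tracker Red CMTPX staining in the red channel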
Conditions: BODIPY lipid droplet fluorescence, 18-24 h; for cell number change: measured here: cell count max response, cells fed with added oleic acid
In short: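 Drosophila S3 cells got compounds at several concentrations plus oleic acid (400 uM solution). Laser-scanning cytometry with 488 nm excitation read lipid droplets at 500-530 nm and cells at 575-640 nm. Percent activity was relative to 20 uM Triacsin C.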

[1] = measured here: lipid fluorescence (Fed channel) AC50, cells fed with added oleic acid
[2] = measured here: cell number channel AC50, cells fed with added oleic acid

SMILES	cell number change [%]	AC50 [1]	AC50 [2]
COc1ccc([N+](=O)[O-])cc1NC(=O)C(C)OC(=O)C1CCCC1 (configuration not stated)	1.08	29.1 µM [falling, single point]	–
CCN(CC)CCN(C(=O)c1cc2ccccc2cc1OC)c1nc2ccc(F)cc2s1	25.1	16.4 µM [rising, partial curve]	–
CC(=O)COC(=O)c1ccc2noc(-c3ccccc3)c2c1	20.5	0.00461 µM [falling, partial curve, poor fit]	–
CC(C)OC(=O)c1ccc(S(N)(=O)=O)o1	-72.5	25.9 µM [falling, single point]	18.4 µM [falling, single point]
CCOC(=O)CC1C(=O)NCCN1C1CCCC1 (configuration not stated)	-21.4	2.31 µM [falling, full curve, poor fit]	–
CCn1c(=O)c(C(=O)NCc2ccc(OC)cc2)c(O)c2ccccc21	–	0.58 µM [rising, single point]	–
Cc1ccc(CNC(=O)C2CCCN2S(=O)(=O)c2ccc3c(c2)C(C)(C)C(=O)N3C)cc1 (configuration not stated)	21	29.1 µM [rising, single point]	–
CCC(CCC(=O)Nc1ccn(-c2ccccc2)n1)C(=O)O (configuration not stated)	13.9	–	–
CCN1C(=O)C(CC(=O)Nc2ccc(C)cc2C)Nc2cc(S(=O)(=O)N(C)C)ccc21 (configuration not stated)	-7.93	0.58 µM [falling, single point]	–
COc1cc(NC(=O)CSc2ccc(-c3ccccn3)nn2)cc(OC)c1	-18.1	29.1 µM [falling, single point]	–
CCOC(=O)/C(=C/c1ccc(OC(=O)c2ccncc2)cc1)C(C)=O	-37.5	10.3 µM [falling, partial curve]	–
Cc1cc(-c2[nH]nc3c2C(c2ccsc2)C(C#N)=C(N)O3)c(C)s1 (configuration not stated)	11	1.84 µM [rising, partial curve]	–
CCCCn1c(N)c(N(CC(C)C)C(=O)COC(=O)Cc2cccc(OC)c2)c(=O)[nH]c1=O	–	–	2.91 µM [rising, partial curve]
COc1ccc2sc3c(=O)[nH]c4ccccc4c3c2c1	-37.1	2.31 µM [falling, partial curve, poor fit]	5.17 µM [falling, full curve]
FC(F)(F)c1ccc(NC(=S)NCc2ccccc2)cc1	-46.1	2.59 µM [rising, single point]	29.1 µM [falling, single point]
CN1CN(C)c2ccc([N+](=O)[O-])c3cccc1c23	6.94	–	–
COC(=O)COc1ccc(S(=O)(=O)Nc2cc([N+](=O)[O-])ccc2C)cc1	54.6	–	–
CC(=O)N1CCc2c(sc(NC(=O)C3COc4ccccc4O3)c2C(N)=O)C1 (configuration not stated)	-18.2	0.13 µM [falling, full curve, poor fit]	–
CCOc1ccccc1OCCOc1ccccc1OC(C)C	–	6.51 µM [rising, single point]	–
CC(=O)Nc1ccc(S(=O)(=O)N[C@@H](C)C(=O)OCC(=O)NC2CCCC2)cc1	15.6	6.51 µM [falling, single point]	–
CCC1CCCCN1C(=O)CN1C(=O)c2ccccc2S1(=O)=O (configuration not stated)	–	29.1 µM [rising, single point]	2.91 µM [rising, single point]

SMILES	cell number change [%]	AC50 [1]	AC50 [2]
CCOC(=O)c1ccc(NS(=O)(=O)N2CCCCCC2)cc1	-29.1	–	–
O=C(NCC(c1ccco1)N1CCCC1)c1ccccc1Sc1ccc(C(F)(F)F)cc1[N+](=O)[O-] (configuration not stated)	83.5	–	10.3 µM [rising, partial curve]
CC(=O)c1ccc(S(=O)(=O)Nc2ccc(-c3ccc4nnc(C)n4n3)cc2)cc1	-3.74	–	0.82 µM [falling, single point]
CCCCNS(=O)(=O)c1ccc(NC(=O)C2c3ccccc3Oc3ccccc32)cc1	-17.5	16.4 µM [falling, single point]	–
Cc1ccc(S(=O)(=O)NCC(=O)OC(C)C(=O)NC(=O)NC2CCCCC2)cc1C (configuration not stated)	-1.46	29.1 µM [falling, single point]	4.11 µM [rising, partial curve]
COc1ccc(NC(=O)C2CCCN2S(=O)(=O)c2ccc(C)cc2)cc1 (configuration not stated)	22.2	–	–
Oc1cccc(C=Nc2cccc3ccccc23)c1O	-37	–	6.51 µM [falling, single point]
CCOC(=O)c1sc(NC(=O)c2ccoc2C)c(C(N)=O)c1C	–	6.51 µM [falling, partial curve]	–
Cc1cc(N2CCN(C)CC2)nc2ccc(NC(=O)CCC(=O)NCCc3ccc(Cl)cc3)cc12	1.39	–	–
COC(=O)c1cc(Br)c(=O)n(CCN2CCOCC2)c1	–	–	0.58 µM [falling, full curve]
O=C(CCCc1nc2ccccc2s1)NNC(=O)CCN1CCN(Cc2ccccc2)CC1	71.9	–	–
Cc1ccc(Nc2c(-c3ccccn3)nc3cc(C)ccn23)cc1	-72.4	18.4 µM [falling, single point]	29.1 µM [falling, single point]
COc1ccc(CCNC(=O)CSc2cn(Cc3cccc(C)c3)c3ccccc23)cc1OC	-41.5	20.6 µM [falling, partial curve]	16.4 µM [falling, single point]
COC(=O)c1c(NC(=O)CC2SC(N)=NC2=O)sc(C)c1C (configuration not stated)	49.5	–	25.9 µM [rising, partial curve, poor fit]
CC1CCC(NC(=O)CN2C(=O)NC(C)(C)C2=O)CC1 (configuration not stated)	-21.5	4.11 µM [falling, single point]	–
COc1cccc(NC(=S)NN=C2CCC(C(C)(C)C)CC2)c1 (configuration not stated)	71.2	4.61 µM [rising, single point]	20.6 µM [rising, partial curve, poor fit]
O=C(/C=C/c1cccs1)Nc1ccncc1	8.41	–	–
CCN1CCN(C(=O)C2CCN(Cc3cc(Cl)ccc3O)CC2)CC1	0.581	6.51 µM [falling, full curve, poor fit]	–
COc1ccc([C@H]2CC(=O)C=C(c3ccc4[nH]ccc4c3)C2)cc1OC	-5.77	2.91 µM [rising, single point]	–
CCC(=O)N1CCN(c2nc(-c3ccccc3)c3c(c2C#N)CCCC3)CC1	3.47	0.0058 µM [rising, full curve, poor fit]	–
CCc1nnc(NC(=O)COc2ccc3c(c2)OCO3)s1	113	–	14.6 µM [rising, partial curve]

Structural class, those above with a furan ring, fused or not
SMILES	cell number change [%]	AC50 [1]	AC50 [2]
CC(C)OC(=O)c1ccc(S(N)(=O)=O)o1	-72.5	25.9 µM [falling, single point]	18.4 µM [falling, single point]
O=C(NCC(c1ccco1)N1CCCC1)c1ccccc1Sc1ccc(C(F)(F)F)cc1[N+](=O)[O-] (configuration not stated)	83.5	–	10.3 µM [rising, partial curve]
CCOC(=O)c1sc(NC(=O)c2ccoc2C)c(C(N)=O)c1C	–	6.51 µM [falling, partial curve]	–

(list continues)

SMILES	cell number change [%]	AC50 [1]	AC50 [2]
COC(=O)c1cc(NC(=O)Cn2c(=O)cnc3ccccc32)cc(C(=O)OC)c1	6.52	–	–
CCN=c1scc(-c2ccco2)n1/N=C/c1ccc(OC)c(O)c1	-72.5	20.6 µM [falling, single point]	29.1 µM [falling, partial curve]
CCNC(=O)/C(C#N)=C/c1c(N2CCN(c3ccccc3)CC2)nc2ccccn2c1=O	–	–	0.00461 µM [rising, full curve, poor fit]
CCOC(=O)c1c(C)[nH]c(C)c1C(=O)COC(=O)c1cc(OC)cc(OC)c1	-38.8	–	–
CC(C)(C)c1ccc(S(=O)(=O)NCCc2ccncc2)cc1	-9.09	23.1 µM [rising, single point]	–
CCOC(=O)c1cnn(-c2cc(Oc3cccc(C)c3)ncn2)c1N	19	4.11 µM [rising, full curve]	1.46 µM [rising, partial curve, poor fit]
Cn1c(N)c(C(=O)Nc2cccc(Cl)c2)c(=O)n(C)c1=O	-17.6	0.731 µM [rising, single point]	–
O=C(NCC(c1ccco1)N1CCN(c2ccc(F)cc2)CC1)C(=O)NC1CCCC1 (configuration not stated)	3.85	29.1 µM [rising, single point]	–
CC(C)(C)NC(=O)C(c1ccncc1)N(C(=O)Cn1nnc(-c2cccs2)n1)C1CCCCC1 (configuration not stated)	–	0.651 µM [rising, single point]	–
COCCn1c(=NC(=O)c2ccc3c(c2)OCCO3)sc2cc(S(N)(=O)=O)ccc21	-30.3	–	29.1 µM [falling, single point]
Cc1ccc(S(=O)(=O)NCCSc2nnc(N)s2)cc1	2.62	–	–
COc1ccc(-c2sc(Nc3ccc(F)c(F)c3F)nc2CCC(=O)NN)cc1	11.9	0.58 µM [falling, single point]	–
COc1cc(OC)cc(C(=O)N[C@H](C(=O)OCC(=O)NC(=O)NC(C)(C)C)C(C)C)c1	–	0.103 µM [falling, single point]	–
OC(COc1ccccc1)CN1CCCC1 (configuration not stated)	-32.2	23.1 µM [falling, single point]	–
O=C(COC(=O)c1cccc(S(=O)(=O)N2CCCCCC2)c1)Nc1ccccc1	25	–	1.16 µM [falling, partial curve, poor fit]
CCn1c(SCC(=O)N2CCCCC2C)nc2c1c(=O)n(C)c(=O)n2C (configuration not stated)	-19.2	–	–
COc1ccc(N2CCOCC2)c(NC(=O)c2ccco2)c1	-19.7	–	–
CCCC1C2C(=O)N(c3ccccc3OCC)C(=O)C2ON1c1ccccc1 (configuration not stated)	14.6	–	–
Cc1ccc(OCCCCn2ccnc2)c(Cl)c1	-16.8	0.461 µM [rising, full curve]	–
O=C1CC(c2ccco2)CC(O)=C1C=NCCN1CCN(C(=S)Nc2ccccc2)CC1 (configuration not stated)	11.5	0.00517 µM [rising, full curve, poor fit]	0.00461 µM [rising, full curve, poor fit]
